{"source": "PubChem BioAssay AID602196 (INSERM, 2012)", "assay": "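Knock-downs that protect lung cancer cells from cisplatin or sensitise them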", "system": "human A549 lung cancer cells", "reagents": "siRNA pair against human genes", "duration": "48 h transfection before cisplatin; time from cisplatin to read-out not stated", "challenge": "cisplatin at a dose killing half of control-siRNA cells; exact dose and duration not given", "measurement": "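Shift in cisplatin death relative to control siRNA, from -50 (all cells die) to +50 (no cells die); siRNAs harmful on their own scored 0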", "reading the numbers": "two-siRNA summed score (-2 to +2): higher = both siRNAs protect from cisplatin killing; -2 means both sensitise; mean protection from cisplatin (shift in death): higher = protection from cisplatin killing", "rule for the call": "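siRNAs harmful alone (LDH or WST-1) get 0; others get +1 for less and -1 for more cisplatin killing; genes are active when the two siRNAs give the same sign, summing to ±2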", "calls": "active = both siRNAs shift cisplatin killing the same way; inactive = no consistent shift, or siRNA harmful alone", "note": "Shown is a random part of about 23,000 deposited reagents. 455 of all reagents (2%) count as active. 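Active includes both protection and sensitisation; some change values fall well beyond the stated -50 to +50 range.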 Not all columns of the deposit are shown. Not given: the amount of reagent."}
{"target": "FCHSD2", "two-siRNA summed score (-2 to +2)": 1, "mean protection from cisplatin (shift in death) (%)": 8.7, "activity call": "inactive"}
{"target": "LOC390908", "two-siRNA summed score (-2 to +2)": 0, "mean protection from cisplatin (shift in death) (%)": 7.5, "activity call": "inactive"}
{"target": "CTAGE15", "two-siRNA summed score (-2 to +2)": 0, "mean protection from cisplatin (shift in death) (%)": 11.2, "activity call": "inactive"}
{"target": "TSHB", "two-siRNA summed score (-2 to +2)": 1, "mean protection from cisplatin (shift in death) (%)": 14.6, "activity call": "inactive"}
{"target": "LOC388429", "two-siRNA summed score (-2 to +2)": 1, "mean protection from cisplatin (shift in death) (%)": 17.2, "activity call": "inactive"}
{"target": "CFAP263", "two-siRNA summed score (-2 to +2)": 0, "mean protection from cisplatin (shift in death) (%)": -1, "activity call": "inactive"}
{"target": "PRB3", "two-siRNA summed score (-2 to +2)": 0, "mean protection from cisplatin (shift in death) (%)": 4.2, "activity call": "inactive"}
{"target": "TAF2", "two-siRNA summed score (-2 to +2)": 0, "mean protection from cisplatin (shift in death) (%)": 4.3, "activity call": "inactive"}
{"target": "LOC441104", "two-siRNA summed score (-2 to +2)": 0, "mean protection from cisplatin (shift in death) (%)": 4.5, "activity call": "inactive"}
{"target": "RPS27", "two-siRNA summed score (-2 to +2)": -1, "mean protection from cisplatin (shift in death) (%)": -0.6, "activity call": "inactive"}
{"target": "R3HCC1L", "two-siRNA summed score (-2 to +2)": 0, "mean protection from cisplatin (shift in death) (%)": 0.5, "activity call": "inactive"}
{"target": "PLAUR", "two-siRNA summed score (-2 to +2)": 0, "mean protection from cisplatin (shift in death) (%)": -2.5, "activity call": "inactive"}
{"target": "LOC341784", "two-siRNA summed score (-2 to +2)": 0, "mean protection from cisplatin (shift in death) (%)": 2.2, "activity call": "inactive"}
{"target": "LOC387775", "two-siRNA summed score (-2 to +2)": 0, "mean protection from cisplatin (shift in death) (%)": 9, "activity call": "inactive"}
{"target": "LOC441627", "two-siRNA summed score (-2 to +2)": 0, "mean protection from cisplatin (shift in death) (%)": 7, "activity call": "inactive"}
{"target": "RBM4B", "two-siRNA summed score (-2 to +2)": 1, "mean protection from cisplatin (shift in death) (%)": 5.2, "activity call": "inactive"}
{"target": "C9orf78", "two-siRNA summed score (-2 to +2)": 0, "mean protection from cisplatin (shift in death) (%)": -0.4, "activity call": "inactive"}
{"target": "OR2B3", "two-siRNA summed score (-2 to +2)": 0, "mean protection from cisplatin (shift in death) (%)": 10.5, "activity call": "inactive"}
{"target": "CXCL14", "two-siRNA summed score (-2 to +2)": 0, "mean protection from cisplatin (shift in death) (%)": 4.5, "activity call": "inactive"}
{"target": "MTX3", "two-siRNA summed score (-2 to +2)": 0, "mean protection from cisplatin (shift in death) (%)": 12.1, "activity call": "inactive"}
{"target": "TRIM26", "two-siRNA summed score (-2 to +2)": 0, "mean protection from cisplatin (shift in death) (%)": 11.4, "activity call": "inactive"}
{"target": "LOC284371", "two-siRNA summed score (-2 to +2)": -1, "mean protection from cisplatin (shift in death) (%)": -7.3, "activity call": "inactive"}
{"target": "ZNF564", "two-siRNA summed score (-2 to +2)": 0, "mean protection from cisplatin (shift in death) (%)": -0.2, "activity call": "inactive"}
{"target": "ARSJ", "two-siRNA summed score (-2 to +2)": 0, "mean protection from cisplatin (shift in death) (%)": 5.4, "activity call": "inactive"}
{"target": "BTNL3", "two-siRNA summed score (-2 to +2)": 0, "mean protection from cisplatin (shift in death) (%)": -1.9, "activity call": "inactive"}
{"target": "GEMIN6", "two-siRNA summed score (-2 to +2)": 0, "mean protection from cisplatin (shift in death) (%)": -6.2, "activity call": "inactive"}
{"target": "GFRA2", "two-siRNA summed score (-2 to +2)": -1, "mean protection from cisplatin (shift in death) (%)": -7.4, "activity call": "inactive"}
{"target": "RPL29", "two-siRNA summed score (-2 to +2)": -1, "mean protection from cisplatin (shift in death) (%)": -7.3, "activity call": "inactive"}
{"target": "MAGEB4", "two-siRNA summed score (-2 to +2)": 0, "mean protection from cisplatin (shift in death) (%)": 13.6, "activity call": "inactive"}
{"target": "PSD3", "two-siRNA summed score (-2 to +2)": 0, "mean protection from cisplatin (shift in death) (%)": 4.1, "activity call": "inactive"}
{"target": "HNRNPA3", "two-siRNA summed score (-2 to +2)": 0, "mean protection from cisplatin (shift in death) (%)": 3.5, "activity call": "inactive"}
